Source: publication PMC12738788, “Structural snapshots of Pseudomonas aeruginosa LptB2FG and LptB2FGC reveal insights into lipopolysaccharide recognition and transport” (Nature Communications, 2025)

The chains behind the UniProt entries cited, without tags or fusion partners. Where a name states a change or a piece, a line headed by the entry shows the natural chain unless it says otherwise.
UniProt Q9HXH5: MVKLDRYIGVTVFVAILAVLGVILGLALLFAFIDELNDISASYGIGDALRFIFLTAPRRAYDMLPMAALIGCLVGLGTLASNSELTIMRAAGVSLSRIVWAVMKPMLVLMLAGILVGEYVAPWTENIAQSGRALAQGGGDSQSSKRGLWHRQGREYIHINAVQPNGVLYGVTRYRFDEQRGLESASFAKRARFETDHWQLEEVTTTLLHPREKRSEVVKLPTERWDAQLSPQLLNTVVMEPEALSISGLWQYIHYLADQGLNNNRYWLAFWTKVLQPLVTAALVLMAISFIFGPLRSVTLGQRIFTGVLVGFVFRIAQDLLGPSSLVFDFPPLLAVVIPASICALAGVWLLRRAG
UniProt Q9HXH4: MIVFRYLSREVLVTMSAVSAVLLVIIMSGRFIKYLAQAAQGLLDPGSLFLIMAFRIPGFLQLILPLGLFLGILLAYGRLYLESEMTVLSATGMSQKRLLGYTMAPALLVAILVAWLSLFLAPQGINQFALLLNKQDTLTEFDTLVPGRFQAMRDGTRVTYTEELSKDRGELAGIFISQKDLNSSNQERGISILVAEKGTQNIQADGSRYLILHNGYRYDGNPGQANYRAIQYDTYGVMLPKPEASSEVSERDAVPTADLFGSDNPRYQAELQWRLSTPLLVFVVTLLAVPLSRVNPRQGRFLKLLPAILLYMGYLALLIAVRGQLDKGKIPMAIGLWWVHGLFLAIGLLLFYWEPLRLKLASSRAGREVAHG

Molecular target: P. aeruginosa LptG (P. aeruginosa) (UniProt Q9HXH5)
Experiment: cryo-EM structure; LptB2FG/LptB2FGC co-expressed, co-purified and delipidated, reconstituted in MSP1D1 nanodiscs with E. coli total extract lipid; 20 mM Tris-HCl pH 7.5, 100 mM NaCl; substrate-free; three LptB2FG and two LptB2FGC conformations from one sample; both purified

binding: binds
Substance: P. aeruginosa LptF (from UniProt Q9HXH4)

No constants are given. Whether binding was seen depends on the method and setting. In cells and extracts the contact can be indirect. Binding calls can cover weak binding; strength is not graded here.
